Measured values from paper PMC12148024.
No constants are given. Whether binding was seen depends on the method and setting. Some entries that bind do so weakly or less than the wild type.

The chains behind the UniProt entries cited, without tags or fusion partners. Where a name states a change or a piece, a line headed by the entry shows the natural chain unless it says otherwise.
UniProt P60900: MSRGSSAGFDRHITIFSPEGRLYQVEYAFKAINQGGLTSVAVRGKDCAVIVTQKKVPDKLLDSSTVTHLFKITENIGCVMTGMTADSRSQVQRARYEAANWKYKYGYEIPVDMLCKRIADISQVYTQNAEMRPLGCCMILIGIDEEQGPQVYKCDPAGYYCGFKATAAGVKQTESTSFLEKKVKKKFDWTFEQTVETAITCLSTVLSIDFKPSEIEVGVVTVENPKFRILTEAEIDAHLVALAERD

Molecular target: α-subunit ring assembly intermediate (Band 3): intact ring of 20S α1–α7 subunits (human (endogenous in HAP1)) (UniProt P60900)
Experiment: native gel or EMSA; cell extracts (PI31 WT and KO, with or without 100 U/ml IFNγ 24 h, with or without POMP siRNA) on 3–8% polyacrylamide Tris-acetate native gels, 4°C, 90 mM Tris-borate, 5 mM MgCl2, 100 µM ATP; western blotting of the native gel and of a second-dimension SDS-PAGE; proteins found in the same band

binding: binds
B1: PAC3/PAC4 heterodimeric chaperone (complex, UniProt Q9BT73 1-122; Q5JS54 1-123)
chain 1: MEDTPLVISKQKTEVVCGVPTQVVCTAFSSHILVVVTQFGKMGTLVSLEPSSVASDVSKPVLTTKVLLGQDEPLIHVFAKNLVAFVSQEAGNRAVLLAVAVKDKSMEGLKALREVIRVCQVW
chain 2: MEGLVVAAGGDVSLHNFSARLWEQLVHFHVMRLTDSLFLWVGATPHLRNLAVAMCSRYDSIPVSTSLLGDTSDTTSTGLAQRLARKTNKQVFVSYNLQNTDSNFALLVENRIKEEMEAFPEKF
